Assay results from PubChem BioAssay AID445 (National Center for Advancing Translational Sciences (NCATS), 2006).
The other results are listed elsewhere or left out. Shown are side measurements of this screen, not its main read-out; they come without a call. Compounds called inactive in the main read-out are mostly missing here. Words in brackets tell the shape of the fitted curve; partial curves, single points and poor fits give uncertain potencies.

Assay: IkB Signaling
Settings: ABC-DLBCL IkBa-CBG/CBR dual luciferase ratio (green luciferase fused to IkBa over red control in OCI-Ly3 lymphoma cells), 4 h
Summary of the method: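 Curves were fitted separately to fusion (green), unfused (red) and ratio luminescence, then classed by r2, magnitude and activity. Cells: OCI-Ly3, 4 h compound plus doxycycline at 37C; 10 uM MG-132 defined full response.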

[1] = measured here: control luc red channel unless noted

**Q.** With `COc1ccc2[nH]cc(S(=O)(=O)c3ccc(C)c(C)c3)c(=O)c2c1` as the compound, how does the AC50 [1] read?
**A.** Its AC50 is 10 µM [falling, partial curve].

**Q.** Which AC50 [1] does the source give for `Cc1nc(N2CCN(c3ccccc3)CC2)c2c3c(sc2n1)CCC3` here?
**A.** Its AC50 is 15.8 µM [falling, partial curve].

**Q.** For `COC(=O)COc1ccc(S(=O)(=O)Nc2ccc3c(c2)OCO3)cc1`, which AC50 [1] is on record?
**A.** Its AC50 is 20 µM [falling, partial curve].

**Q.** For `Cc1nn2cc(-c3ccc(-c4ccccc4)cc3)nc2s1`, which AC50 [1] is on record?
**A.** Its AC50 is 39.8 µM [falling, single point].

**Q.** For `COc1ccc(Cl)cc1NC(=O)CSC1=Nc2ccccc2C2=NC(CC(=O)NCc3cccs3)C(=O)N12` (centres undefined), which AC50 [1] is on record?
**A.** The AC50 was 12.6 µM [falling, partial curve].

**Q.** Which AC50 [1] does the source give for `O=C(NCc1ccccc1)c1cnc(N2CCCCC2)c2ccccc12` here?
**A.** Its AC50 is 39.8 µM [falling, single point].

**Q.** With `COc1cccc(Nc2nc3ccc(C)cc3nc2-n2nc(C)cc2C)c1` as the compound, how does the AC50 [1] read?
**A.** Its AC50 is 7.94 µM [falling, full curve].

**Q.** For `Cc1ccc(NC(=O)C2=CC(c3ccc4c(c3)OCO4)=NS(=O)(=O)N2C)cc1`, which AC50 [1] is on record?
**A.** Its AC50 is 39.8 µM [falling, single point].

**Q.** For `CCOc1cccc(C(=O)Nc2nnc(-c3ccco3)s2)c1`, which AC50 [1] is on record?
**A.** The AC50 was 10 µM [falling, partial curve].

**Q.** With `Cn1c(=O)n(CCCc2ccccc2)c(=O)c2c1nc1n2CCN1c1ccc(F)cc1` as the compound, how does the AC50 [1] read?
**A.** The AC50 was 20 µM [falling, partial curve].

**Q.** With `CCOC(=O)c1cc2c(=O)n3ccccc3nc2n(Cc2ccco2)c1=NC(=O)c1ccc(OCC)cc1` as the compound, how does the AC50 [1] read?
**A.** The AC50 was 0.00631 µM [falling, full curve, poor fit].

**Q.** Which AC50 [1] does the source give for `COc1ccc(NC(=O)c2ccc(Cl)c(S(=O)(=O)N3CCc4ccccc4C3)c2)cn1` here?
**A.** Its AC50 is 12.6 µM [falling, partial curve].

**Q.** For `Cn1c(NC(=O)c2ccccc2NC(=O)C(C)(C)C)nc2ccccc21`, which AC50 [1] is on record?
**A.** Its AC50 is 5.01 µM [falling, partial curve].

**Q.** For `O=C(c1cc(-c2ccc(O)cc2)on1)N1CCN(c2ccccc2)CC1`, which AC50 [1] is on record?
**A.** The AC50 was 6.31 µM [falling, partial curve].

**Q.** Which AC50 [1] does the source give for `O=C(O)CCCSc1nc2ccccc2s1` here?
**A.** Its AC50 is 2 µM [falling, partial curve].

**Q.** For `CCCCOC(=O)c1ccc(NC(=O)c2cnc3ccc(C)cn3c2=O)cc1`, which AC50 [1] is on record?
**A.** Its AC50 is 39.8 µM [falling, single point].

**Q.** With `CCN(c1cccc(C)c1)c1ncnc2c1cnn2-c1cccc(Cl)c1` as the compound, how does the AC50 [1] read?
**A.** The AC50 was 5.01 µM [falling, partial curve].

**Q.** Which AC50 [1] does the source give for `Cc1nn(C(=O)c2ccc(Br)cc2)c(C)c1Sc1ccccc1` here?
**A.** The AC50 was 15.8 µM [falling, partial curve].

**Q.** With `COc1cc(OC)c(N(C)C(=O)c2sc3nc4n(c(=O)c3c2C)CCCC4)cc1Cl` as the compound, how does the AC50 [1] read?
**A.** Its AC50 is 10 µM [falling, partial curve].

**Q.** With `COc1ccccc1N1CCN(C(=O)COc2ccc(Cl)cc2Br)CC1` as the compound, how does the AC50 [1] read?
**A.** The AC50 was 31.6 µM [falling, single point].

**Q.** Which AC50 [1] does the source give for `O=C(COc1cccc2ccccc12)N1CCN(c2ccccc2)CC1` here?
**A.** Its AC50 is 20 µM [falling, partial curve].

**Q.** Which AC50 [1] does the source give for `COc1cccc(CNC(=O)c2ccc(NC(=O)N3CC(C)Sc4ccccc43)cc2)c1` (centres undefined) here?
**A.** The AC50 was 10 µM [falling, partial curve].

**Q.** With `Cc1ccccc1Nc1c(-c2ccncc2)nc2ccc(Cl)cn12` as the compound, how does the AC50 [1] read?
**A.** Its AC50 is 12.6 µM [falling, partial curve].

**Q.** With `CC(C)c1nnc(NC(=O)CC(=O)Nc2ccccc2C(=O)O)s1` as the compound, how does the AC50 [1] read?
**A.** The AC50 was 5.01 µM [falling, partial curve].

**Q.** With `COc1cc(NC(=O)c2ccc(NC(=O)N3CCSc4ncccc43)cc2)cc(OC)c1` as the compound, how does the AC50 [1] read?
**A.** The AC50 was 31.6 µM [falling, partial curve].

**Q.** With `CC(C)(C)OC(=O)N1CCC(c2c(C(=O)N3CCN(C(=O)c4ccco4)CC3)cnn2-c2ccccc2)CC1` as the compound, how does the AC50 [1] read?
**A.** Its AC50 is 20 µM [falling, single point].

**Q.** With `Cc1ccc2nc(Cl)c3cc(C(=O)NC4CCCCCC4)sc3c2c1` as the compound, how does the AC50 [1] read?
**A.** The AC50 was 25.1 µM [falling, partial curve, poor fit].

**Q.** Which AC50 [1] does the source give for `Cc1cccc(NC(=O)Cc2csc(COc3cccc(C)c3)n2)c1` here?
**A.** Its AC50 is 31.6 µM [falling, single point].

**Q.** For `Cc1cc(C)cc(NC(=O)CCc2c(C)nc3c4cccnc4nn3c2C)c1`, which AC50 [1] is on record?
**A.** Its AC50 is 25.1 µM [falling, partial curve].

**Q.** For `CC1=C(C(=O)Nc2ccccc2)C(c2ccc(C)o2)n2c(s/c(=C\c3ccco3)c2=O)=N1` (centres undefined), which AC50 [1] is on record?
**A.** Its AC50 is 10 µM [falling, partial curve].

**Q.** Which AC50 [1] does the source give for `FC(F)(F)c1cccc(Nc2ncnc3ccccc23)c1` here?
**A.** Its AC50 is 39.8 µM [falling, single point].

**Q.** For `CCOc1ccc(S(=O)(=O)Nc2ccc(-c3ccc(OC)nn3)cc2)cc1`, which AC50 [1] is on record?
**A.** The AC50 was 3.98 µM [falling, partial curve].

**Q.** For `Cc1c2cnn(-c3ccccc3)c(=O)c2c(C)n1CC(=O)NCc1ccccc1`, which AC50 [1] is on record?
**A.** Its AC50 is 0.398 µM [rising, full curve].

**Q.** Which AC50 [1] does the source give for `Cc1ccc(Cl)cc1NS(=O)(=O)c1cc2c3c(c1)CC(=O)N3CCC2` here?
**A.** The AC50 was 5.01 µM [rising, partial curve].

**Q.** Which AC50 [1] does the source give for `CN(CC(=O)Nc1ccc(Cl)cc1)CC(=O)Nc1cc(Cl)ccc1C#N` here?
**A.** The AC50 was 39.8 µM [falling, partial curve].

**Q.** For `CCCNC(=O)N1CCN(S(=O)(=O)c2ccc3c(ccn3C)c2)CC1`, which AC50 [1] is on record?
**A.** The AC50 was 2.51 µM [falling, partial curve].

**Q.** For `Cc1ccc(CNC(=O)Cn2c(=O)n(-c3cccc(Cl)c3)c(=O)c3sc4ccccc4c32)cc1`, which AC50 [1] is on record?
**A.** The AC50 was 3.98 µM [falling, partial curve].

**Q.** For `CCOc1ccc(-c2cc3nc(C4CCN(C(=O)OC(C)(C)C)CC4)c(C(=O)Nc4ccc(C)cc4C)cn3n2)cc1`, which AC50 [1] is on record?
**A.** Its AC50 is 25.1 µM [falling, single point].

**Q.** With `Cc1ccc2c(c1)-c1c(cnn1CC(=O)Nc1ccccc1C#N)CO2` as the compound, how does the AC50 [1] read?
**A.** The AC50 was 12.6 µM [falling, single point].

**Q.** For `CC(=O)N1CCCc2cc(S(=O)(=O)N3CCCC(C(=O)N4CCN(c5cc(C)ccc5C)CC4)C3)ccc21` (centres undefined), which AC50 [1] is on record?
**A.** Its AC50 is 31.6 µM [falling, single point].

**Q.** With `Cc1ccc(C(=O)COC(=O)CCC(=O)Nc2ccc(Oc3cc(C)ccc3C(C)C)cc2)cc1` as the compound, how does the AC50 [1] read?
**A.** Its AC50 is 39.8 µM [falling, single point].

**Q.** Which AC50 [1] does the source give for `CCc1ccc(C2=NN(CCC(=O)NCCc3ccc(Cl)cc3)C(=O)CC2)cc1` here?
**A.** Its AC50 is 31.6 µM [falling, single point].

**Q.** With `O=C(NCC(c1ccccc1)c1ccccc1)c1nn(-c2ccccc2F)nc1CO` as the compound, how does the AC50 [1] read?
**A.** The AC50 was 1 µM [falling, full curve].

**Q.** Which results are given for `Oc1c(CN2CCN(c3ccccn3)CC2)cc(Cl)c2cccnc12`?
**A.** AC50 (measured here: IkB-luc green channel): 6.31 µM [rising, single point]; AC50 (measured here: control luc red channel): 3.16 µM [falling, full curve, poor fit]

**Q.** Which AC50 [1] does the source give for `Cc1ccc(CCNC(=O)CCSCc2ccccc2Cl)cc1` here?
**A.** Its AC50 is 31.6 µM [falling, single point].

**Q.** Which AC50 [1] does the source give for `Oc1ccccc1OCc1nc2ccccc2s1` here?
**A.** The AC50 was 7.94 µM [falling, full curve].

**Q.** Which AC50 [1] does the source give for `CCOC(=O)Cn1nnnc1C(C(C)C)N(Cc1cc2c(C)cc(C)cc2[nH]c1=O)C1CCCC1` (centres undefined) here?
**A.** Its AC50 is 20 µM [falling, partial curve].

**Q.** For `Cc1cc(Br)ccc1NC(=O)C1CCN(S(=O)(=O)c2ccc(Br)s2)CC1`, which AC50 [1] is on record?
**A.** Its AC50 is 2.51 µM [falling, partial curve].

**Q.** For `CCOC(=O)c1ccc(N2C(=O)c3n[nH]c(-c4cccs4)c3C2c2ccc(Cl)cc2Cl)cc1` (centres undefined), which AC50 [1] is on record?
**A.** The AC50 was 20 µM [falling, partial curve].

**Q.** With `COc1ccc(NC(=O)c2c(C)oc3ccc(O)c(CN4CCN(Cc5ccccc5)CC4)c23)cc1` as the compound, how does the AC50 [1] read?
**A.** Its AC50 is 12.6 µM [falling, partial curve].

**Q.** Which AC50 [1] does the source give for `Cc1ccc(NC(=O)CN2C(=O)C3(SCC(=O)N3c3ccc(F)c(F)c3)c3ccccc32)c(C)c1` (centres undefined) here?
**A.** The AC50 was 20 µM [falling, single point].

**Q.** Which AC50 [1] does the source give for `CCOCCCNC(=O)C(c1ccc(Cl)cc1)N(Cc1cccs1)C(=O)c1ccc(NC(C)=O)cc1` (centres undefined) here?
**A.** The AC50 was 10 µM [falling, partial curve].

**Q.** Which AC50 [1] does the source give for `Cc1cc(=O)n(CCc2ccccc2)c(O)c1C#N` here?
**A.** The AC50 was 15.8 µM [falling, partial curve].

**Q.** With `Cc1ccc(-n2c(SCC(=O)NCc3ccco3)nnc2-c2cccnc2)c(C)c1` as the compound, how does the AC50 [1] read?
**A.** The AC50 was 31.6 µM [falling, partial curve].

**Q.** Which AC50 [1] does the source give for `CN(C)c1ccc(C(CNC(=O)c2c(F)cccc2Cl)N2CCOCC2)cc1` (centres undefined) here?
**A.** Its AC50 is 10 µM [falling, partial curve].

**Q.** With `CC(C)(Oc1ccc(Cl)cc1)C(=O)Nc1nc2ccc(S(C)(=O)=O)cc2s1` as the compound, how does the AC50 [1] read?
**A.** Its AC50 is 31.6 µM [falling, single point].

**Q.** Which AC50 [1] does the source give for `COc1ccc(Cl)cc1NC(=O)NCC1CCN(Cc2ccccc2F)CC1` here?
**A.** The AC50 was 10 µM [falling, partial curve].

**Q.** Which AC50 [1] does the source give for `COc1ccc(-n2c(=O)c3c4c(sc3n3c(SCCC(C)C)nnc23)COC(C(C)C)C4)cc1` (centres undefined) here?
**A.** The AC50 was 12.6 µM [falling, partial curve].

**Q.** For `CN1C(=O)C2(SCC(=O)N2c2ccc(F)cc2)c2ccccc21` (centres undefined), which AC50 [1] is on record?
**A.** The AC50 was 10 µM [falling, partial curve].

**Q.** With `COCCNC(=O)CSc1nc(-c2ccccc2C)nc2c1c(=O)n(C)c(=O)n2C` as the compound, how does the AC50 [1] read?
**A.** The AC50 was 0.1 µM [falling, full curve, poor fit].

**Q.** With `NS(=O)(=O)c1ccc2nc(NC(=O)COc3ccccc3)sc2c1` as the compound, how does the AC50 [1] read?
**A.** Its AC50 is 3.16 µM [rising, full curve].

**Q.** Which AC50 [1] does the source give for `Cc1ccc(NC(=O)c2nc(S(C)(=O)=O)ncc2N(Cc2ccco2)Cc2ccco2)cc1C` here?
**A.** Its AC50 is 7.94 µM [falling, partial curve].

**Q.** With `CCOc1ccc(Nc2c(S(=O)(=O)c3ccccc3)cnc3ccccc23)cc1` as the compound, how does the AC50 [1] read?
**A.** The AC50 was 15.8 µM [falling, partial curve].
